Assay results published in the supplement of paper PMC7840683.
± gives the standard deviation of the averaged measurements.

Test system: HepaRG
Assay: LDH release cytotoxicity, % of total lysis control; higher = more cytotoxic
Conditions: 48 h
Procedure, shortened: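 Single-lot HepaRG cells in collagen I-coated 96-well plates were treated for 48 h in serum-free induction medium containing 0.5% DMSO with test chemicals in eight-point half-log series up to 100 µM. For total lysis, wells received 0.1% Triton X. LDH in 50 µL spent medium was assayed by resorufin fluorescence with CytoTox-ONE. Percent cytotoxicity was normalized to the on-plate vehicle and total lysis controls, with duplicates averaged.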

CS(=O)(=O)c1ccc(C(CC2CCCC2)C(=O)Nc2cnccn2)cc1Cl (stereo not given)
LDH release cytotoxicity (0.03162 µM): -1.48 ± 0.44%
LDH release cytotoxicity (0.1 µM): -1.58 ± 1.5%
LDH release cytotoxicity (0.3162278 µM): -1.31 ± 0.0065%
LDH release cytotoxicity (1 µM): -2.08 ± 0.18%
LDH release cytotoxicity (3.16228 µM): -1.592 ± 0.013%
LDH release cytotoxicity (10 µM): -1.71 ± 1.1%
LDH release cytotoxicity (31.6228 µM): -0.413 ± 0.65%
LDH release cytotoxicity (100 µM): 17.4 ± 0.39%

Oc1c(Cl)cc(Cl)cc1Cl [2,4,6-Trichlorophenol]
LDH release cytotoxicity (0.031623 µM): -0.828 ± 0.2%
LDH release cytotoxicity (0.1 µM): -2.22 ± 0.092%
LDH release cytotoxicity (0.316228 µM): -1.66 ± 0.41%
LDH release cytotoxicity (1 µM): -2.86 ± 1.5%
LDH release cytotoxicity (3.16228 µM): -1.67 ± 0.49%
LDH release cytotoxicity (10 µM): -2.16 ± 0.035%
LDH release cytotoxicity (31.6228 µM): -1.47 ± 1.2%
LDH release cytotoxicity (100 µM): 0.385 ± 0.048%

Cc1ccc(O)cc1C [3,4-Dimethylphenol]
LDH release cytotoxicity (0.03162 µM): -1.25 ± 0.25%
LDH release cytotoxicity (0.1 µM): -1.43 ± 1.4%
LDH release cytotoxicity (0.3162278 µM): -1.77 ± 1.1%
LDH release cytotoxicity (1 µM): -2.44 ± 0.054%
LDH release cytotoxicity (3.16228 µM): -1.293 ± 0.01%
LDH release cytotoxicity (10 µM): -0.728 ± 0.74%
LDH release cytotoxicity (31.6228 µM): 0.0948 ± 0.2%
LDH release cytotoxicity (100 µM): 0.792 ± 1.1%

CC(C)(C)c1ccc(O)cc1 [4-tert-Butylphenol]
LDH release cytotoxicity (0.03162 µM): -1.49 ± 1%
LDH release cytotoxicity (0.1 µM): -1.07 ± 1.4%
LDH release cytotoxicity (0.3162278 µM): -0.895 ± 1.4%
LDH release cytotoxicity (1 µM): -1.81 ± 1.4%
LDH release cytotoxicity (3.16228 µM): -1.48 ± 0.38%
LDH release cytotoxicity (10 µM): -1.04 ± 1.5%
LDH release cytotoxicity (31.6228 µM): -0.404 ± 1.2%
LDH release cytotoxicity (100 µM): 48.6 ± 3.1%

CCCCCCCC1CCC(=O)O1 (stereo not given) [5-Heptyldihydro-2(3H)-furanone]
LDH release cytotoxicity (0.0317809 µM): -0.367 ± 0.12%
LDH release cytotoxicity (0.1005 µM): -0.913 ± 0.3%
LDH release cytotoxicity (0.317809 µM): -0.865 ± 0.25%
LDH release cytotoxicity (1.005 µM): -1.31 ± 0.2%
LDH release cytotoxicity (3.17809 µM): -0.869 ± 0.13%
LDH release cytotoxicity (10.05 µM): -0.67 ± 0.14%
LDH release cytotoxicity (31.7809 µM): -0.32 ± 0.19%
LDH release cytotoxicity (100.5 µM): 0.547 ± 0.29%
